Drawing on the supplement of paper PMC6411743, this text covers NP40-soluble protein abundance for 61 targets.

Sequences of proteins named here, by UniProt entry; tags and fusion partners are left off. A change or cut given only in a name is not applied to a line headed by its entry.
UniProt P13796: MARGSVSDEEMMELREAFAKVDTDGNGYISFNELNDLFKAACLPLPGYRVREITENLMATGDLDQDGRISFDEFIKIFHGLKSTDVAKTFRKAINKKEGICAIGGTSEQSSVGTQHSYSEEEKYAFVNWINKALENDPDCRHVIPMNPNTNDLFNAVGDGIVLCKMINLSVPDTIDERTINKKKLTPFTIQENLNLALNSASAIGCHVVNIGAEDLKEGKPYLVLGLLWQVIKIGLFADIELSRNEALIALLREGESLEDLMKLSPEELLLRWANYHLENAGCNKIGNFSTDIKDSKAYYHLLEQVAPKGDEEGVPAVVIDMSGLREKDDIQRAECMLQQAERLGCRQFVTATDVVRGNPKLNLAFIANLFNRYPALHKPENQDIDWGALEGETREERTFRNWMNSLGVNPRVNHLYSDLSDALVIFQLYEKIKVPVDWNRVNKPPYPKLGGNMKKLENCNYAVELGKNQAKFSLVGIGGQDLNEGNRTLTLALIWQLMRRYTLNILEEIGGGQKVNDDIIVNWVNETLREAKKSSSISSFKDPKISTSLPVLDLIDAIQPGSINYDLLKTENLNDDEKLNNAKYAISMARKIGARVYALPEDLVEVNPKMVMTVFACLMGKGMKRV
UniProt P0C7T5: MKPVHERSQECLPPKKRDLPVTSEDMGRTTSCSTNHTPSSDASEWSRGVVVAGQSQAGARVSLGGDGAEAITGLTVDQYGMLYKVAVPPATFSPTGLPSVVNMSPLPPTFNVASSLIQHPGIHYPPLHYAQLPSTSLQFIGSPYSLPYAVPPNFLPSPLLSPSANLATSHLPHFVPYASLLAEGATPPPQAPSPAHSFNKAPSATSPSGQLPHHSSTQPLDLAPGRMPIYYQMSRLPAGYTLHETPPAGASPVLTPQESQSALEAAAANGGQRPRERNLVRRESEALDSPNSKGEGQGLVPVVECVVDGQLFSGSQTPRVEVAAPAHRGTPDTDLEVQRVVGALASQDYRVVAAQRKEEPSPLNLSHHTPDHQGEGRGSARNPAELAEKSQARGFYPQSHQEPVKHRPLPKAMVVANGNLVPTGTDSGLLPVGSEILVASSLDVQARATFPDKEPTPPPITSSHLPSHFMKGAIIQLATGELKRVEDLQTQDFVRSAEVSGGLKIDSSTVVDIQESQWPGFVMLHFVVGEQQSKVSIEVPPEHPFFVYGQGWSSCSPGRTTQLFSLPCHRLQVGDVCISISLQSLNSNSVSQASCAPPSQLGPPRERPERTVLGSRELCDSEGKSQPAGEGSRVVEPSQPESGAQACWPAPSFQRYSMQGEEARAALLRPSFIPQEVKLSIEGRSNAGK
UniProt P07108: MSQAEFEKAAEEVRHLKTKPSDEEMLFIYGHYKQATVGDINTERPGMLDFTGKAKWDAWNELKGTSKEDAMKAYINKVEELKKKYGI
UniProt P09104, whole entry: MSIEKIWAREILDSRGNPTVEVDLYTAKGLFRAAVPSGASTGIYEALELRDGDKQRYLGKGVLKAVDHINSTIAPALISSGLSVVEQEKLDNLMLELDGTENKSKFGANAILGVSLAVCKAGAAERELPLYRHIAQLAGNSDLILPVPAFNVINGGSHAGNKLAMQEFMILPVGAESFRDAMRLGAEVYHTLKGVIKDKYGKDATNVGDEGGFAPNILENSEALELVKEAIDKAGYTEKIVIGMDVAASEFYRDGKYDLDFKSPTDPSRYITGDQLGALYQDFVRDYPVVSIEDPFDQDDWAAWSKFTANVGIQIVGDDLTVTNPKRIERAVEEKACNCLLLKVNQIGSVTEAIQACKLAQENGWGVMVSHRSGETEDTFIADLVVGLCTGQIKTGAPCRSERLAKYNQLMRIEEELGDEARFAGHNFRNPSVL
UniProt P07099: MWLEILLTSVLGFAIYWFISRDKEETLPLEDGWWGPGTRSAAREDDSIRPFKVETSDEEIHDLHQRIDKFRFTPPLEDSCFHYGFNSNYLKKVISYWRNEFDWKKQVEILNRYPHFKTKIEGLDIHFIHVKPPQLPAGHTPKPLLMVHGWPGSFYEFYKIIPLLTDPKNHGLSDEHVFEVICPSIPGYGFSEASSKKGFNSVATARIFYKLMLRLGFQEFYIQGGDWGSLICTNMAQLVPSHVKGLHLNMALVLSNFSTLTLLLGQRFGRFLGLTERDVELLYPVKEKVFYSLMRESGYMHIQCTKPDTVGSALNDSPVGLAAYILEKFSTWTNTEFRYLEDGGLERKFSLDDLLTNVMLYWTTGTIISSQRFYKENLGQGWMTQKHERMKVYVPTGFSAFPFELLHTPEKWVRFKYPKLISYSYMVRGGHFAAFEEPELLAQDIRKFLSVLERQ
UniProt P08134, whole entry: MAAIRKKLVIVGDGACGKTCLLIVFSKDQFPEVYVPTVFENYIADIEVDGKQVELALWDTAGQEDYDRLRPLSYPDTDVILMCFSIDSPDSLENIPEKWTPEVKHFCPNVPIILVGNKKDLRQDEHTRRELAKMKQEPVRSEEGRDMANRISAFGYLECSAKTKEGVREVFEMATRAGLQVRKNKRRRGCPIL
UniProt P13667: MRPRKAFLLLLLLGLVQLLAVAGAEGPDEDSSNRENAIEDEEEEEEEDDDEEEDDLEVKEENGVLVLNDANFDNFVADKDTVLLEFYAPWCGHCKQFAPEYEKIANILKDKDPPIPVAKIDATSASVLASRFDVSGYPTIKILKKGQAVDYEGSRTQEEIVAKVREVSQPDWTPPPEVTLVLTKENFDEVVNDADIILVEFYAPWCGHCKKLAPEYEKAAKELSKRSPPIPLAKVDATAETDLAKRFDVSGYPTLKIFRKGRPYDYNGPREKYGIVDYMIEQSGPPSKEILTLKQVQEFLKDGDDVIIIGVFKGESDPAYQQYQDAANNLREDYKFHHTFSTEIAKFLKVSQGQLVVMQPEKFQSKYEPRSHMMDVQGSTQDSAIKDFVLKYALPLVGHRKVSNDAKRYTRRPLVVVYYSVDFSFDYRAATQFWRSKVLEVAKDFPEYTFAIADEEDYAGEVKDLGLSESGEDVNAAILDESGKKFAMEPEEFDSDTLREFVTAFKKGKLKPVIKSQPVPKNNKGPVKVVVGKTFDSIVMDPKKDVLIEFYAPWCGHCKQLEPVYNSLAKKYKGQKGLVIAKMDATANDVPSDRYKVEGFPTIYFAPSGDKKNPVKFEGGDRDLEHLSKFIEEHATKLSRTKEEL
UniProt O95782: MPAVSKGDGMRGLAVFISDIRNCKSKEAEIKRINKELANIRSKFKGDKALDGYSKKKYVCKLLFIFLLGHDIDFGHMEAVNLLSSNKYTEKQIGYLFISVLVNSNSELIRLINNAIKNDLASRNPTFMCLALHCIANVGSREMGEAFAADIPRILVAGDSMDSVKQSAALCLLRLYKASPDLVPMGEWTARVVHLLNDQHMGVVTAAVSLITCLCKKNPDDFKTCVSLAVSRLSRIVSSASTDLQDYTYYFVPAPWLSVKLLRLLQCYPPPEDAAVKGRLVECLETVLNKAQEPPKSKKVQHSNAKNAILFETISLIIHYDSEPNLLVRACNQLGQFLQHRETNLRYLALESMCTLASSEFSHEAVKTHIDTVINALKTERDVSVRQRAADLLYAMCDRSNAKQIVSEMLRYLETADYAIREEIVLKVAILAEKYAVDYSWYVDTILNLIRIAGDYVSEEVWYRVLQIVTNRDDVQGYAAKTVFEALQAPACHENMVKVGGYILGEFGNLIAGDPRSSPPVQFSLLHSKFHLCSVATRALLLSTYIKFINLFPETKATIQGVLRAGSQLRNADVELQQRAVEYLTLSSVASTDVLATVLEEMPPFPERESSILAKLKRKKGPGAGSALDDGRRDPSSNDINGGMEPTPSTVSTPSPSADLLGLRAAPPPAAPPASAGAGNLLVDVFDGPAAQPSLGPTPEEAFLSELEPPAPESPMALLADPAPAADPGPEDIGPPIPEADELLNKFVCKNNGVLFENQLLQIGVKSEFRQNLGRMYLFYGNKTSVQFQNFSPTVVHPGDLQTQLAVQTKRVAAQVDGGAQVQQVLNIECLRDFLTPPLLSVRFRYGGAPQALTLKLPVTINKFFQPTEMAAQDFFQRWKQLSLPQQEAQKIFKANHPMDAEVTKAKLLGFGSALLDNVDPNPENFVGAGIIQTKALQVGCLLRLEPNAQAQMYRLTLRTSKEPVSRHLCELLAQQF
UniProt O96011: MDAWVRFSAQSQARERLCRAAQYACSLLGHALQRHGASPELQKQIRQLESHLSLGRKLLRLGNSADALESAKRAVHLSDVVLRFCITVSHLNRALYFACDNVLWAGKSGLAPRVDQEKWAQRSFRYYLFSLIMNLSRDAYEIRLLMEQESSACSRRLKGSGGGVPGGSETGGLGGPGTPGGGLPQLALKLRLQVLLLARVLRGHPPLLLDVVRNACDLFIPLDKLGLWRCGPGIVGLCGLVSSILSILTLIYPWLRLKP
UniProt P13196: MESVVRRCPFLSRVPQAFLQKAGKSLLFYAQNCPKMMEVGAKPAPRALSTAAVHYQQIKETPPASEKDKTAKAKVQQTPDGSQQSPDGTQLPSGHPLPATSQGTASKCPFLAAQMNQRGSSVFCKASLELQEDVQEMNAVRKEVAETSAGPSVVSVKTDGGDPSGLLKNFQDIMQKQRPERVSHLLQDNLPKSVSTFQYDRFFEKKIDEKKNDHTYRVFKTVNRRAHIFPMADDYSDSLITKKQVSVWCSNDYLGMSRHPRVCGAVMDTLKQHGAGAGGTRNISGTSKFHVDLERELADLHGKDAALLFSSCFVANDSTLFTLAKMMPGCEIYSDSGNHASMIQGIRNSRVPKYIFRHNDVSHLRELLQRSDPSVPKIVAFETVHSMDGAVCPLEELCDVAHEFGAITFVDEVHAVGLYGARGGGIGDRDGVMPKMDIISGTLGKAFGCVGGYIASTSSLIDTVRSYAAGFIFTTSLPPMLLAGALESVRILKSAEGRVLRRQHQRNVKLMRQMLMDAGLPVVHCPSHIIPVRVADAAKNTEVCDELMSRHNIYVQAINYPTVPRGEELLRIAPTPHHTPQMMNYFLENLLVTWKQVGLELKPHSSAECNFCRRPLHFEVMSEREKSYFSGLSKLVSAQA
UniProt P15170, whole entry: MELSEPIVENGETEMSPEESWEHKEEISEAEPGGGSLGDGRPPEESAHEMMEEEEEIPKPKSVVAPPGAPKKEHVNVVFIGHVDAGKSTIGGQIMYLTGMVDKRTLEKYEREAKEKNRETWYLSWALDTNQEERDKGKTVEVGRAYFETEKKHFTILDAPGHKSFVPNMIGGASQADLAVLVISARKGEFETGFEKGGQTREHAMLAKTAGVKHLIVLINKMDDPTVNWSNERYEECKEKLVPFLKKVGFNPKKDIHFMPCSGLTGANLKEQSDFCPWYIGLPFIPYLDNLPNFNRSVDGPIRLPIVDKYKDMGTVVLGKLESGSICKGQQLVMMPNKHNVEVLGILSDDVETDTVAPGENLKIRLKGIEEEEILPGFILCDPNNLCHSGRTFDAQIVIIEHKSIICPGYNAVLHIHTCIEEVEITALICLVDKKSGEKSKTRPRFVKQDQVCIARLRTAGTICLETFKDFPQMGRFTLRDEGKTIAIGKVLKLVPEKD
UniProt P09960: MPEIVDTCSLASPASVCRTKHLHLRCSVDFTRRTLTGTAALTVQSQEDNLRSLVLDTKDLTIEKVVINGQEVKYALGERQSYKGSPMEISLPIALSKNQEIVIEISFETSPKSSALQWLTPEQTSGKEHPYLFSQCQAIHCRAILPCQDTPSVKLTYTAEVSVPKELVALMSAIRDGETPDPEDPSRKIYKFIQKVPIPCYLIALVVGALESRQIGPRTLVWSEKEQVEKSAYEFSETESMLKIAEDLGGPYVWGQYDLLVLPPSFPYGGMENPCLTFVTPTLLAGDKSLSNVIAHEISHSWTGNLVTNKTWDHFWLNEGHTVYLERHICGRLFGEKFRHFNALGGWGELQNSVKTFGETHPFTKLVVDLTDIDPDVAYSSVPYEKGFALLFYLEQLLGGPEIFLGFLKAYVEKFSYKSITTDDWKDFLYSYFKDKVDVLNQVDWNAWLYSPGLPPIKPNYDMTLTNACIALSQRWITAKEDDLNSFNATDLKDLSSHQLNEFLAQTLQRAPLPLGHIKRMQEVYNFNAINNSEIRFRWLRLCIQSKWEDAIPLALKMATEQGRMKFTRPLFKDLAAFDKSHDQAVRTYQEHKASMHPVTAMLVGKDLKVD
UniProt P16083: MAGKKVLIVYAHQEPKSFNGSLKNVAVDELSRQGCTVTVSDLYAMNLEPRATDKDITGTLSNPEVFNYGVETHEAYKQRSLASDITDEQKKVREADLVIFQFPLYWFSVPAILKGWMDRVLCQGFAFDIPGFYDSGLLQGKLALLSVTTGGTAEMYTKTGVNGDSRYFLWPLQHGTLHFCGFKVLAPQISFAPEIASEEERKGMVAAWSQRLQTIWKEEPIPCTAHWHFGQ
UniProt P14854, whole entry: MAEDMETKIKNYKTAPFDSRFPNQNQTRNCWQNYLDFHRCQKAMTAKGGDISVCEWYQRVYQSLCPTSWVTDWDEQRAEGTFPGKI
UniProt P10599: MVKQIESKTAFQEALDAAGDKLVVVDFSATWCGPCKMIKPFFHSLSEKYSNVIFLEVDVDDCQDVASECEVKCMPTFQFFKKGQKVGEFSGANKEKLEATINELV

Compound in this test: Nc1ncnc2c1ncn2[C@@H]1O[C@H](COP(=O)(O)OP(=O)(O)NP(=O)(O)O)[C@@H](O)[C@H]1O [adenylyl imidodiphosphate]
Briefly: NP40-soluble protein abundance relative to vehicle (solubility fold change) (ratio); higher = more soluble protein in presence of AMP-PNP. The essentials:
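In three independent experiments, Jurkat crude lysate made by Dounce homogenisation was treated for 10 min at room temperature and then 3 min at 37 °C with eight concentrations ranging from 0.1 to 10 mM. It was then solubilised with 0.8% NP40 plus benzonase for 60 min at 4 °C and ultracentrifuged. The supernatant was TMT-labelled for LC-MS/MS, and each value is the fold change against the detergent-processed vehicle for the same replicate, using vsn-normalised intensities.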

± gives the standard deviation of the averaged measurements. Only a part is listed here, and it is no random draw. Most values lie at the level of the controls, where differences are scatter.

In the case of LCP1 (UniProt P13796), the NP40-soluble protein abundance is, setting by setting: (concentration: 0.1mM) 0.942 ± 0.07; (concentration: 0.5mM) 0.945 ± 0.11.
For ATXN1L (UniProt P0C7T5), in that order: 1.02 ± 0.024 and 1.03 ± 0.021.
TGFB1 (UniProt P01137): the NP40-soluble protein abundance by setting is: (concentration: 0.1mM) 0.994 ± 0.02; (concentration: 0.5mM) 0.9829 ± 0.0086.
For the target UniProt P00374 and related entries, the NP40-soluble protein abundance runs as follows: (concentration: 0.1mM) 1 ± 0.062; (concentration: 0.5mM) 0.995 ± 0.04.
For the target UniProt P08651 and related entries, the NP40-soluble protein abundance came to 1.05 ± 0.03 (concentration: 0.1mM) and 1.02 ± 0.044 (concentration: 0.5mM).
With ITGA4 (UniProt P13612), the NP40-soluble protein abundance (concentration: 0.1mM) is 1 ± 0.02 and the NP40-soluble protein abundance (concentration: 0.5mM) was found to be 1.01 ± 0.013.
For UniProt P10586 and related entries, in that order: 1.01 ± 0.033 and 0.973 ± 0.029.
On to ESD (UniProt P10768), for which the NP40-soluble protein abundance is, setting by setting: (concentration: 0.1mM) 0.961 ± 0.029; (concentration: 0.5mM) 0.972 ± 0.024.
On to MTHFD2 (UniProt P13995), for which the NP40-soluble protein abundance reads like this: (concentration: 0.1mM) 1.02 ± 0.027; (concentration: 0.5mM) 1.02 ± 0.025.
Take UROD (UniProt P06132): the NP40-soluble protein abundance reads like this: (concentration: 0.1mM) 1.016 ± 0.0053; (concentration: 0.5mM) 0.996 ± 0.011.
Regarding UniProt P01112, the NP40-soluble protein abundance amounted to 1.046 ± 0.0077 (concentration: 0.1mM) and 1.05 ± 0.033 (concentration: 0.5mM).
For DBI (UniProt P07108), in that order: 0.979 ± 0.018 and 1.06 ± 0.066.
For the target UniProt O95747, the NP40-soluble protein abundance reads like this: (concentration: 0.1mM) 1.01 ± 0.041; (concentration: 0.5mM) 0.994 ± 0.027.
Take ENO2 (UniProt P09104): the NP40-soluble protein abundance is, setting by setting: (concentration: 0.1mM) 0.989 ± 0.027; (concentration: 0.5mM) 1.02 ± 0.031.
On to EPHX1 (UniProt P07099), for which the NP40-soluble protein abundance is, setting by setting: (concentration: 0.1mM) 0.958 ± 0.052; (concentration: 0.5mM) 0.996 ± 0.068.
Turning to UniProt P11388 and related entries, the NP40-soluble protein abundance is, setting by setting: (concentration: 0.1mM) 1.51 ± 0.028; (concentration: 0.5mM) 1.65 ± 0.051.
Regarding UniProt P08134 and related entries, the NP40-soluble protein abundance runs as follows: (concentration: 0.1mM) 1.04 ± 0.06; (concentration: 0.5mM) 1.08 ± 0.054.
For PDIA4 (UniProt P13667), the NP40-soluble protein abundance was 0.954 ± 0.012 (concentration: 0.1mM) and 0.989 ± 0.021 (concentration: 0.5mM).
Turning to CKB (UniProt P12277), the NP40-soluble protein abundance reads like this: (concentration: 0.1mM) 0.9956 ± 0.0049; (concentration: 0.5mM) 0.994 ± 0.03.
For LGALS1 (UniProt P09382), in that order: 0.995 ± 0.015 and 1.03 ± 0.028.
Regarding UniProt O95782 and related entries, the NP40-soluble protein abundance reads like this: (concentration: 0.1mM) 1.05 ± 0.021; (concentration: 0.5mM) 1.04 ± 0.039.
Consider “P0DN79 and related entries (UniProt P35520+P0DN79)”, for which the NP40-soluble protein abundance runs as follows: (concentration: 0.1mM) 1.01 ± 0.013; (concentration: 0.5mM) 0.985 ± 0.042.
Take “UniProt P15529-2|P15529-3|P15529-4|P15529-5|P15529-6|P15529-7”: the NP40-soluble protein abundance was 0.957 ± 0.026 (concentration: 0.1mM) and 0.988 ± 0.055 (concentration: 0.5mM).
In the case of UniProt P04234, the NP40-soluble protein abundance was found to be 1.028 ± 0.0075 (concentration: 0.1mM) and 1 ± 0.027 (concentration: 0.5mM).
The corresponding values for UniProt O95980 are 0.9795 ± 0.0044 and 0.983 ± 0.018.
With CTSG (UniProt P08311), the NP40-soluble protein abundance runs as follows: (concentration: 0.1mM) 1.02 ± 0.014; (concentration: 0.5mM) 1.01 ± 0.025.
Consider HIST1H1C (UniProt P16403), for which the NP40-soluble protein abundance reads like this: (concentration: 0.1mM) 0.987 ± 0.038; (concentration: 0.5mM) 1.09 ± 0.12.
In the case of UniProt P14543, the NP40-soluble protein abundance (concentration: 0.1mM) stood at 1.04 ± 0.049 and the NP40-soluble protein abundance (concentration: 0.5mM) worked out at 0.972 ± 0.078.
The corresponding values for UniProt O96019 and related entries are 0.996 ± 0.045 and 0.968 ± 0.069.
For the target Fyn (UniProt P06241), the NP40-soluble protein abundance (concentration: 0.1mM) came out at 1.01 ± 0.042 and the NP40-soluble protein abundance (concentration: 0.5mM) came to 0.999 ± 0.1.
As to CST3 (UniProt P01034), the NP40-soluble protein abundance (concentration: 0.1mM) is 1 ± 0.013 and the NP40-soluble protein abundance (concentration: 0.5mM) was determined as 0.9988 ± 0.0071.
For the target UniProt P10244 and related entries, the NP40-soluble protein abundance amounted to 0.995 ± 0.037 (concentration: 0.1mM) and 1.01 ± 0.043 (concentration: 0.5mM).
UniProt O95786 and related entries: the NP40-soluble protein abundance (concentration: 0.1mM) stood at 1.03 ± 0.04 and the NP40-soluble protein abundance (concentration: 0.5mM) turned out to be 0.97 ± 0.075.
Regarding APRT (UniProt P07741), the NP40-soluble protein abundance was 1.04 ± 0.021 (concentration: 0.1mM) and 1.02 ± 0.14 (concentration: 0.5mM).
For the target SNRPA (UniProt P09012), the NP40-soluble protein abundance (concentration: 0.1mM) came out at 1.007 ± 0.0071 and the NP40-soluble protein abundance (concentration: 0.5mM) amounted to 1.02 ± 0.018.
As to NRAS (UniProt P01111), the NP40-soluble protein abundance runs as follows: (concentration: 0.1mM) 1.01 ± 0.035; (concentration: 0.5mM) 0.996 ± 0.07.
With UniProt P05388 and related entries, the NP40-soluble protein abundance is 1.04 ± 0.092 (concentration: 0.1mM) and 1.02 ± 0.046 (concentration: 0.5mM).
On to VIM (UniProt P08670), for which the NP40-soluble protein abundance (concentration: 0.1mM) is 0.983 ± 0.036 and the NP40-soluble protein abundance (concentration: 0.5mM) came out at 1.04 ± 0.093.
Regarding UniProt O96011 and related entries, the NP40-soluble protein abundance reads like this: (concentration: 0.1mM) 1.02 ± 0.072; (concentration: 0.5mM) 0.977 ± 0.1.
For OAT (UniProt P04181), the NP40-soluble protein abundance runs as follows: (concentration: 0.1mM) 1.03 ± 0.038; (concentration: 0.5mM) 1.03 ± 0.014.
Take UniProt P13473-2: the NP40-soluble protein abundance reads like this: (concentration: 0.1mM) 0.942 ± 0.025; (concentration: 0.5mM) 0.986 ± 0.033.
With ALAS1 (UniProt P13196), the NP40-soluble protein abundance amounted to 0.992 ± 0.0094 (concentration: 0.1mM) and 1 ± 0.036 (concentration: 0.5mM).
Turning to ACADS (UniProt P16219), the NP40-soluble protein abundance was found to be 1.01 ± 0.037 (concentration: 0.1mM) and 1.02 ± 0.071 (concentration: 0.5mM).
In the case of UniProt P15170-2|P15170-3|H3BSV8, the NP40-soluble protein abundance turned out to be 0.979 ± 0.013 (concentration: 0.1mM) and 1.008 ± 0.0058 (concentration: 0.5mM).
Take ANXA2 (UniProt P07355): the NP40-soluble protein abundance was found to be 0.944 ± 0.014 (concentration: 0.1mM) and 0.978 ± 0.029 (concentration: 0.5mM).
As to UniProt P11586 and related entries, the NP40-soluble protein abundance was found to be 0.9953 ± 0.0066 (concentration: 0.1mM) and 1 ± 0.016 (concentration: 0.5mM).
In the case of RPN1 (UniProt P04843), the NP40-soluble protein abundance is 0.997 ± 0.013 (concentration: 0.1mM) and 1.01 ± 0.042 (concentration: 0.5mM).
Turning to UniProt P11498 and related entries, the NP40-soluble protein abundance by setting is: (concentration: 0.1mM) 1.018 ± 0.0058; (concentration: 0.5mM) 0.984 ± 0.015.
ATP2A2 (UniProt P16615): the NP40-soluble protein abundance stood at 1 ± 0.034 (concentration: 0.1mM) and 0.97 ± 0.051 (concentration: 0.5mM).
As to UniProt P04150 and related entries, the NP40-soluble protein abundance reads like this: (concentration: 0.1mM) 1 ± 0.028; (concentration: 0.5mM) 0.985 ± 0.022.
For UniProt P12931 and related entries, in that order: 1.03 ± 0.051 and 1.02 ± 0.054.
UniProt P07954-2: the NP40-soluble protein abundance reads like this: (concentration: 0.1mM) 1.02 ± 0.013; (concentration: 0.5mM) 1.01 ± 0.015.
For UniProt P09960 and related entries, in that order: 1.01 ± 0.038 and 1 ± 0.065.
For UniProt P09543 and related entries, the NP40-soluble protein abundance reads like this: (concentration: 0.1mM) 0.995 ± 0.016; (concentration: 0.5mM) 1 ± 0.033.
For UniProt P06396-2, the NP40-soluble protein abundance (concentration: 0.1mM) is 1.06 ± 0.064 and the NP40-soluble protein abundance (concentration: 0.5mM) came out at 1.07 ± 0.081.
Consider UniProt P16083 and related entries, for which the NP40-soluble protein abundance reads like this: (concentration: 0.1mM) 0.979 ± 0.024; (concentration: 0.5mM) 0.999 ± 0.022.
Consider EIF2S1 (UniProt P05198), for which the NP40-soluble protein abundance (concentration: 0.1mM) was found to be 1.01 ± 0.036 and the NP40-soluble protein abundance (concentration: 0.5mM) amounted to 1.01 ± 0.049.
With UniProt P08236 and related entries, the NP40-soluble protein abundance was determined as 1.02 ± 0.016 (concentration: 0.1mM) and 0.976 ± 0.024 (concentration: 0.5mM).
As for UniProt P00387 and related entries, the NP40-soluble protein abundance is, setting by setting: (concentration: 0.1mM) 1.01 ± 0.015; (concentration: 0.5mM) 0.991 ± 0.094.
Turning to COX6B1 (UniProt P14854), the NP40-soluble protein abundance came out at 0.924 ± 0.1 (concentration: 0.1mM) and 0.874 ± 0.025 (concentration: 0.5mM).
As to TXN (UniProt P10599), the NP40-soluble protein abundance runs as follows: (concentration: 0.1mM) 0.987 ± 0.026; (concentration: 0.5mM) 0.996 ± 0.038.
